# Results reported in doi:10.1101/2021.12.16.472961.
# Chains of the proteins cited; added tags and fusions are not shown.
# UniProt Q9BZ95: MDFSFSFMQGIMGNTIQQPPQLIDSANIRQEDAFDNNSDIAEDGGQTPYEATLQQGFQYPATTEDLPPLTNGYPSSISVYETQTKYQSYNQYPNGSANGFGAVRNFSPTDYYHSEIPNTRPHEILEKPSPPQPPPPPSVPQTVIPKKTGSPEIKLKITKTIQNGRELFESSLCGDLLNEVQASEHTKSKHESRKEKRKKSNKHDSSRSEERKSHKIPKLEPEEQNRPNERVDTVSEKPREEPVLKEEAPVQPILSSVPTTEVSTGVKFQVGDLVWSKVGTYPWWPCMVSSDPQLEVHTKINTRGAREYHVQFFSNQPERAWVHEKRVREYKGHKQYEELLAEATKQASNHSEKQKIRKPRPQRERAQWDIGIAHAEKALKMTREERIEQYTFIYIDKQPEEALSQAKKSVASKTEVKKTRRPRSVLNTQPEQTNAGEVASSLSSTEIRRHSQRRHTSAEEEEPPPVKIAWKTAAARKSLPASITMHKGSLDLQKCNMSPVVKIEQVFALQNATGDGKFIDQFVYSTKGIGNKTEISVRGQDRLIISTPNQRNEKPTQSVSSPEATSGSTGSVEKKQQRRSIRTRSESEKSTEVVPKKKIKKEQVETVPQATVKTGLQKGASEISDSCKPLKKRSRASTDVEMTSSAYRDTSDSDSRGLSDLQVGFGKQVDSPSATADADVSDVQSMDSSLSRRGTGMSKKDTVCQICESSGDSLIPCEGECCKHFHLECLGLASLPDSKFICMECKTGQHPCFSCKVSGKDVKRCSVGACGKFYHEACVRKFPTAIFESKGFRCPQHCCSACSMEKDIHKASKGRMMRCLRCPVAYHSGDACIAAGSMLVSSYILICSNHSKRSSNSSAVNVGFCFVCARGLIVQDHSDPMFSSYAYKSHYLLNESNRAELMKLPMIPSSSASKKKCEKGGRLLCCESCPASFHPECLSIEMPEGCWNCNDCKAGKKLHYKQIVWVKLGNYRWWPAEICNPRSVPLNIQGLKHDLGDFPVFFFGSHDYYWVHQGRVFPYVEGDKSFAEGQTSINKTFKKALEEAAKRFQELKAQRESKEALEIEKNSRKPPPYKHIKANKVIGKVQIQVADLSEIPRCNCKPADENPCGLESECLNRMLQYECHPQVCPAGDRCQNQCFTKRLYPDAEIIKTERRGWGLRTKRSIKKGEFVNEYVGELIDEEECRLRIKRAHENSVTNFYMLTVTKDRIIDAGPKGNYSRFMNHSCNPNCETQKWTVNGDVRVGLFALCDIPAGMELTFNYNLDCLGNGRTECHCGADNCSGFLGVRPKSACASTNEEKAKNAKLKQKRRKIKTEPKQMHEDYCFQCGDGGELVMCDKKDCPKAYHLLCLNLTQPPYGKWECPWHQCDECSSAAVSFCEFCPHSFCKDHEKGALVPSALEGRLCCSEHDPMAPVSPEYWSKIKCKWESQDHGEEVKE
# UniProt Q6KC79: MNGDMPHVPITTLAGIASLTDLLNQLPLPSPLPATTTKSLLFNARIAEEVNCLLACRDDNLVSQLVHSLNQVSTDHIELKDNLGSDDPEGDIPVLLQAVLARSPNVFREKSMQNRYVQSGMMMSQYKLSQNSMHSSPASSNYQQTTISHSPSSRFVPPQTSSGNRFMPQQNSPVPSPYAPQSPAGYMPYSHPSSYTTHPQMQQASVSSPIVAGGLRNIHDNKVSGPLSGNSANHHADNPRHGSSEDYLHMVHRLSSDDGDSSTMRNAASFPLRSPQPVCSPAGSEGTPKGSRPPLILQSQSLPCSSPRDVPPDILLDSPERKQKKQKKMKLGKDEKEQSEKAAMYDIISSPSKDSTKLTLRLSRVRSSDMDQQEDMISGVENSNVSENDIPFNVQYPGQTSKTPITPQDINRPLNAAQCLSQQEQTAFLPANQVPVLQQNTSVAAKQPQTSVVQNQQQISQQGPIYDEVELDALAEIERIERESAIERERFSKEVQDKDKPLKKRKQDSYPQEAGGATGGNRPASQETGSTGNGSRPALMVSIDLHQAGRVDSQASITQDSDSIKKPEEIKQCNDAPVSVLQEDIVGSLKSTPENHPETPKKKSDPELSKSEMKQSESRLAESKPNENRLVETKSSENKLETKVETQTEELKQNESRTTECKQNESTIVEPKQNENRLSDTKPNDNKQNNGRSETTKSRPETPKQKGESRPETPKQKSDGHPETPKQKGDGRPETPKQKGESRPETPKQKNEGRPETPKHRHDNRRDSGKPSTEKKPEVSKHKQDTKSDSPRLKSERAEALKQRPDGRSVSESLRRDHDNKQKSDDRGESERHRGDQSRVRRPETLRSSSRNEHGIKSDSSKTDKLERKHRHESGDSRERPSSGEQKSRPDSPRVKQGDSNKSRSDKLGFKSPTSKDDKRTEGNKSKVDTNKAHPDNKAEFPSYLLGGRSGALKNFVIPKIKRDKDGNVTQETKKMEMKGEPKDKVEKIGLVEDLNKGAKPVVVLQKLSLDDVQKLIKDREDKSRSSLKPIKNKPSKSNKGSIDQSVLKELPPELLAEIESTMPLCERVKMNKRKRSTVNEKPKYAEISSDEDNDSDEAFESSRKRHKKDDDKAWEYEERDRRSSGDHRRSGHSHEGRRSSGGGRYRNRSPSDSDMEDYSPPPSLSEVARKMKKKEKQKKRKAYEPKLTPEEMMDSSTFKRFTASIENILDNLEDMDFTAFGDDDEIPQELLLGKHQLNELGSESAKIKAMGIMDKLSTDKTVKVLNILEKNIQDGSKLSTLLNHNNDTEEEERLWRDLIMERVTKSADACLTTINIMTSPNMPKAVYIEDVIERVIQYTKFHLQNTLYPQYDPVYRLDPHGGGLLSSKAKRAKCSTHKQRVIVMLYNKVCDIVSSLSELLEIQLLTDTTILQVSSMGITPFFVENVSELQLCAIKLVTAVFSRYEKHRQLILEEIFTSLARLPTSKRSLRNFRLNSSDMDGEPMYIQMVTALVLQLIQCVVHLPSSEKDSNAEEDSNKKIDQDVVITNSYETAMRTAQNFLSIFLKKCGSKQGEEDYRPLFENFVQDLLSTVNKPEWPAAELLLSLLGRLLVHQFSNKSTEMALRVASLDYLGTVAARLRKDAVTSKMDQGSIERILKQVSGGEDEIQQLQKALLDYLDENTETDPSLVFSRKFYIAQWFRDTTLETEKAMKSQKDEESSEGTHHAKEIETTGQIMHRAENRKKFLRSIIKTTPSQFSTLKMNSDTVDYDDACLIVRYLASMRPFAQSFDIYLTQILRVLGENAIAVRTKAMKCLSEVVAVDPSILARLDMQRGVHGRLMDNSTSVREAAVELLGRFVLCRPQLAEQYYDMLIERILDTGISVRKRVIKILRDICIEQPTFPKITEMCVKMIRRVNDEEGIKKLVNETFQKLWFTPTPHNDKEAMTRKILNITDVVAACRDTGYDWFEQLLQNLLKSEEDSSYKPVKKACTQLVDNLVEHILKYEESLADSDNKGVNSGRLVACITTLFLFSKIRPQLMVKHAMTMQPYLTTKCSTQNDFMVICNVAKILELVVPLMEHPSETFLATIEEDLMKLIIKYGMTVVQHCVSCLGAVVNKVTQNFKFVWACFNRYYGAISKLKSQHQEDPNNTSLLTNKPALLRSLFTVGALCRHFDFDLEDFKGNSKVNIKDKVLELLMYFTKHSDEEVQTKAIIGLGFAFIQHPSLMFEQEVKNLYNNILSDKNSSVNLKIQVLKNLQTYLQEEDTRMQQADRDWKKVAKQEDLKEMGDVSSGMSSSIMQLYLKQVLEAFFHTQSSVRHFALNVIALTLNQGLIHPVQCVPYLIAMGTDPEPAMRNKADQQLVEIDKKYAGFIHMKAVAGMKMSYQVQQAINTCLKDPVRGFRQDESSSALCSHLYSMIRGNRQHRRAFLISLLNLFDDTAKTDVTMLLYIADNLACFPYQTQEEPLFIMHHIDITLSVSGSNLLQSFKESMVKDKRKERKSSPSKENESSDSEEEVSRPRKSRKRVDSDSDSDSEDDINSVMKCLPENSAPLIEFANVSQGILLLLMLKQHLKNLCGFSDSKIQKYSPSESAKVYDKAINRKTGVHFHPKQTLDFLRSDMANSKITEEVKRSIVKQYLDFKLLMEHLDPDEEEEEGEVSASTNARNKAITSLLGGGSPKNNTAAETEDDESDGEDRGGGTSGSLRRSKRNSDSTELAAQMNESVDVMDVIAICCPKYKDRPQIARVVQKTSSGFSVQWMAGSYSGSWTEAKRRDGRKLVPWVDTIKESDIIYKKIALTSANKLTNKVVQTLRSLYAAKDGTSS
# These are yes or no findings as the source states them, for the method shown. In cells and extracts the contact can be indirect. Some results given as binding are weak or reduced against the parent protein; the word gives no strength.
# Key:
# Assay in all cases: co-IP
# [1] = target: EmGFP-NSD3-L (full-length NSD3 long isoform fused to a LAP tag: FLAG followed by EmGFP) (human) (UniProt Q9BZ95)
# [2] = target: NSD3 (histone-lysine N-methyltransferase NSD3), endogenous (human (endogenous in HeLa)) (UniProt Q9BZ95)
# [3] = target: Nipped-B-like protein, endogenous (human (endogenous in HeLa)) (UniProt Q6KC79)
Molecule,binding [1],binding [2],binding [3]
"Nipped-B-like protein, endogenous (from UniProt Q6KC79 1-2804)",binds,binds,
"NSD3 (histone-lysine N-methyltransferase NSD3), endogenous (from UniProt Q9BZ95 1-1437)",,,binds
"MAU2 sister chromatid cohesion factor, endogenous (protein, UniProt Q9Y6X3 1-613) MAAQAAAAAQAAAAQAAQAEAADSWYLALLGFAEHFRTSSPPKIRLCVHCLQAVFPFKPPQRIEARTHLQLGSVLYHHTKNSEQARSHLEKAWLISQQIPQFEDVKFEAASLLSELYCQENSVDAAKPLLRKAIQISQQTPYWHCRLLFQLAQLHTLEKDLVSACDLLGVGAEYARVVGSEYTRALFLLSKGMLLLMERKLQEVHPLLTLCGQIVENWQGNPIQKESLRVFFLVLQVTHYLDAGQVKSVKPCLKQLQQCIQTISTLHDDEILPSNPADLFHWLPKEHMCVLVYLVTVMHSMQAGYLEKAQKYTDKALMQLEKLKMLDCSPILSSFQVILLEHIIMCRLVTGHKATALQEISQVCQLCQQSPRLFSNHAAQLHTLLGLYCVSVNCMDNAEAQFTTALRLTNHQELWAFIVTNLASVYIREGNRHQEVLYSLLERINPDHSFPVSSHCLRAAAFYVRGLFSFFQGRYNEAKRFLRETLKMSNAEDLNRLTACSLVLLGHIFYVLGNHRESNNMVVPAMQLASKIPDMSVQLWSSALLRDLNKACGNAMDAHEAAQMHQNFSQQLLQDHIEACSLPEHNLITWTDGPPPVQFQAQNGPNTSLASLL",binds,binds,binds
